Our source for the step yield values is US20230263900A1 (priority 2020, published 2023).

The data set in a line: peptide synthesis. Conditions: late stage modification step.
“BHALys[Lys]2[Lys]4[(α-NH2·TFA)4(ε-NH2·TFA)4]” showed a step yield of 101%.
For “BHALys[Lys]2[Lys]4[Lys]8[(α-NH2·TFA)8(ε-NH2·TFA)8]”, the step yield is listed as 100%.
“BHALys[Lys]2[Lys]4[Lys]8[Lys]16[(α-NH2·TFA)16(ε-NH2·TFA)16]” returned a step yield of 100%.
